The other results are listed elsewhere or left out.
Legend:
Assay in all cases: glycan array binding signal (z-score within array); higher = stronger binding
Conditions in all cases: glycan notation: IUPAC condensed, linker removed
[1] = molecular target: Fuc(a1-2)[Gal(a1-3)]Gal
Summary of the method: (§1)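 The binding signal is a Z-score computed within each array. Data were drawn from 3228 arrays in the Consortium for Functional Glycomics database, restricted to those with a known protein sequence. Scores were averaged over arrays of the same protein sequence at different concentrations or buffers, and over linkers, and negative values can be taken as non-binding.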

[2] = molecular target: Fuc(a1-2)[Gal(a1-3)]Gal(b1-3)GlcNAc
Summary of the method: as §1

[3] = molecular target: Fuc(a1-2)[Gal(a1-3)]Gal(b1-3)GlcNAc(b1-2)Man(a1-3)[Fuc(a1-2)[Gal(a1-3)]Gal(b1-3)GlcNAc(b1-2)Man(a1-6)]Man(b1-4)GlcNAc(b1-4)GlcNAc
Summary of the method: as §1

[4] = molecular target: Fuc(a1-2)[Gal(a1-3)]Gal(b1-4)Glc
Summary of the method: as §1

[5] = molecular target: Fuc(a1-2)[Gal(a1-3)]Gal(b1-4)GlcNAc
Summary of the method: as §1

[6] = molecular target: Fuc(a1-2)[Gal(a1-3)]Gal(b1-4)GlcNAc(b1-2)Man(a1-3)[Fuc(a1-2)[Gal(a1-3)]Gal(b1-4)GlcNAc(b1-2)Man(a1-6)]Man(b1-4)GlcNAc(b1-4)GlcNAc
Summary of the method: as §1

[7] = molecular target: Fuc(a1-2)[Gal(a1-3)]Gal(b1-4)[Fuc(a1-3)]GlcNAc
Summary of the method: as §1

[8] = molecular target: Fuc(a1-2)[Gal(a1-4)]Gal(b1-4)GlcNAc
Summary of the method: as §1

[9] = molecular target: Fuc(a1-2)[GalNAc(a1-3)]Gal
Summary of the method: as §1

[10] = molecular target: Fuc(a1-2)[GalNAc(a1-3)]Gal(b1-3)GalNAc(a1-3)[Fuc(a1-2)]Gal(b1-4)GlcNAc
Summary of the method: as §1

[11] = molecular target: Fuc(a1-2)[GalNAc(a1-3)]Gal(b1-3)GlcNAc
Summary of the method: as §1

[12] = molecular target: Fuc(a1-2)[GalNAc(a1-3)]Gal(b1-3)GlcNAc(b1-2)Man(a1-3)[Fuc(a1-2)[GalNAc(a1-3)]Gal(b1-3)GlcNAc(b1-2)Man(a1-6)]Man(b1-4)GlcNAc(b1-4)GlcNAc
Summary of the method: as §1

[13] = molecular target: Fuc(a1-2)[GalNAc(a1-3)]Gal(b1-4)Glc
Summary of the method: as §1

[14] = molecular target: Fuc(a1-2)[GalNAc(a1-3)]Gal(b1-4)GlcNAc
Summary of the method: as §1

[15] = molecular target: Fuc(a1-2)[GalNAc(a1-3)]Gal(b1-4)GlcNAc(b1-2)Man(a1-3)[Fuc(a1-2)[GalNAc(a1-3)]Gal(b1-4)GlcNAc(b1-2)Man(a1-6)]Man(b1-4)GlcNAc(b1-4)GlcNAc
Summary of the method: as §1

[16] = molecular target: Fuc(a1-2)[GalNAc(a1-3)]Gal(b1-4)GlcNAc(b1-3)Gal(b1-4)GlcNAc
Summary of the method: as §1

[17] = molecular target: Fuc(a1-2)[GalNAc(a1-3)]Gal(b1-4)GlcNAc(b1-3)Gal(b1-4)GlcNAc(b1-3)Gal(b1-4)GlcNAc
Summary of the method: as §1

[18] = molecular target: Fuc(a1-2)[GalNAc(a1-3)]Gal(b1-4)[Fuc(a1-3)]GlcNAc
Summary of the method: as §1

[19] = molecular target: Fuc(a1-2)[GalNAc(a1-4)]Gal(b1-4)GlcNAc
Summary of the method: as §1

[20] = molecular target: Fuc(a1-2)[GalNAc(b1-3)]Gal
Summary of the method: as §1

[21] = molecular target: Fuc(a1-3)GlcNAc
Summary of the method: as §1

[22] = molecular target: Fuc(a1-3)[Gal(b1-4)]Glc6S
Summary of the method: as §1

[23] = molecular target: Fuc(a1-3)[Gal(b1-4)]GlcNAc
Summary of the method: as §1

[24] = molecular target: Fuc(a1-3)[Gal(b1-4)]GlcNAc(b1-2)Man(a1-3)[Fuc(a1-3)[Gal(b1-4)]GlcNAc(b1-2)Man(a1-6)]Man(b1-4)GlcNAc(b1-4)GlcNAc
Summary of the method: as §1

[25] = molecular target: Fuc(a1-3)[Gal(b1-4)]GlcNAc(b1-3)Gal(b1-3)[Fuc(a1-4)]GlcNAc
Summary of the method: as §1

[26] = molecular target: Fuc(a1-3)[Gal(b1-4)]GlcNAc(b1-3)GalNAc
Summary of the method: as §1

[27] = molecular target: Fuc(a1-3)[Gal(b1-4)]GlcNAc(b1-4)Gal(b1-4)[Fuc(a1-3)]GlcNAc
Summary of the method: as §1

[28] = molecular target: Fuc(a1-3)[Gal(b1-4)]GlcNAc(b1-4)Gal(b1-4)[Fuc(a1-3)]GlcNAc(b1-4)Gal(b1-4)[Fuc(a1-3)]GlcNAc
Summary of the method: as §1

[29] = molecular target: Fuc(a1-3)[Gal(b1-4)]GlcNAc(b1-6)[Gal(b1-3)GlcNAc(b1-3)]Gal(b1-4)Glc
Summary of the method: as §1

[30] = molecular target: Fuc(a1-3)[Gal(b1-4)]GlcNAc6S
Summary of the method: as §1

B1: SspB (Streptococcus gordonii), P16952 (protein)
chain: MKNKKEVYGFRKSKVAKTLCGAVLGTALIAFADKAVFADEVTETTSTSTVEVATTGNPATNLPEAQGEMSQVAKESQAKAGSKESALPVEVSSADLDKAVADAKSAGVKVVQDETKDKGTATTATDNAQKQDEIKSDYAKQAEEIKTTTEAYKKEVAAHQAETDKINAENKAADDKYQKDLKSHQEEVEKINTANATAKAEYEAKLAQYQKDLATVKKANEDSQQDYQNKLSAYQTELARVQKANAEAKEAYEKAVKENTAKNEALKVENEAIKQRNETAKATYEAAMKQYEADLAAIKKANEDNDADYQAKLAAYQTELARVQKANAEAKEAYDKAVKENTAKNTAIQAENEAIKQRNETAKATYDAAVKKYEADLAAVKQANATNEADYQAKLAAYQTELARVQKANADAKATYEKAVEDNKAKNAAIKAENEEIKQRNAVAKTDYEAKLAKYEADLAKYKKEFAAYTAALAEAESKKKQDGYLSEPRSQSLNFKSEPNAIRTIDSSVHQYGQQELDALVKSWGISPTNPDRKKSRAYSYFNAINSNNTYAKLVLEKDKPVDVTYTGLKNSSFNGKKISKVVYTYTLKETGFNDGTKMTMFASSDPTVTAWYNDYFTSTNINVKVKFYDEEGQLMNLTGGLVNFSSLNRGNGSGAIDKDAIESVRNFNGRYIPISGSSIKIHENNSAYADSSNAEKSLGARWNTSEWDTTSSPNNWYGAIVGEITQSEISFNMASSKSGNIWFAFNSNINAIGVPTKPVAPTAPTQPMYETEKPLEPAPVAPSYENEPTPPVKTPDQPEPSKPEEPTYETEKPLEPAPVAPSYENEPTPPVKTPDQPEPSKPEEPNYETEKPLEPAPVAPSYENEPTPPVKIPDQPEPSKPEEPTYDPLPTPPLAPTPKQLPTPPVVPTVHFHYSSLLAQPQINKEIKNEDGVDIDRTLVAKQSIVKFELKTEALTAGRPKTTSFVLVDPLPTGYKFDLDATKAASTGFDTTYDEASHTVTFKATDETLATYNADLTKPVETLHPTVVGRVLNDGATYTNNFTLTVNDAYGIKSNVVRVTTPGKPNDPDNPNNNYIKPTKVNKNKEGLNIDGKEVLAGSTNYYELTWDLDQYKGDKSSKEAIQNGFYYVDDYPEEALDVRPDLVKVADEKGNQVSGVSVQQYDSLEAAPKKVQDLLKKANITVKGAFQLFSADNPEEFYKQYVATGTSLVITDPMTVKSEFGKTGGKYENKAYQIDFGNGYATEVVVNNVPKITPKKDVTVSLDPTSENLDGQTVQLYQTFNYRLIGGLIPQNHSEELEDYSFVDDYDQAGDQYTGNYKTFSSLNLTMKDGSVIKAGTDLTSQTTAETDATNGIVTVRFKEDFLQKISLDSPFQAETYLQMRRIAIGTFENTYVNTVNKVAYASNTVRTTTPIPRTPDKPTPIPTPKPKDPDKPETPKEPKVPSPKVEDPSAPIPVSVGKELTTLPKTGTNDATYMPYLGLAALVGFLGLGLAKRKED
[1]
  glycan array binding signal (z-score): -0.179
[2]
  glycan array binding signal (z-score): 0.381
[3]
  glycan array binding signal (z-score): 0.227
[4]
  glycan array binding signal (z-score): 0.486
[5]
  glycan array binding signal (z-score): 0.017
[6]
  glycan array binding signal (z-score): 2.31
[7]
  glycan array binding signal (z-score): -0.352
[8]
  glycan array binding signal (z-score): 1.02
[9]
  glycan array binding signal (z-score): 0.857
[10]
  glycan array binding signal (z-score): -0.697
[11]
  glycan array binding signal (z-score): -1.06
[12]
  glycan array binding signal (z-score): -0.556
[13]
  glycan array binding signal (z-score): -1.27
[14]
  glycan array binding signal (z-score): -0.127
[15]
  glycan array binding signal (z-score): 1.04
[16]
  glycan array binding signal (z-score): 0.001
[17]
  glycan array binding signal (z-score): 1.31
[18]
  glycan array binding signal (z-score): 0.08
[19]
  glycan array binding signal (z-score): -0.891
[20]
  glycan array binding signal (z-score): 0.761
[21]
  glycan array binding signal (z-score): 0.435
[22]
  glycan array binding signal (z-score): 1.58
[23]
  glycan array binding signal (z-score): -0.041
[24]
  glycan array binding signal (z-score): 1.67
[25]
  glycan array binding signal (z-score): -0.232
[26]
  glycan array binding signal (z-score): 0.466
[27]
  glycan array binding signal (z-score): 0.662
[28]
  glycan array binding signal (z-score): -0.63
[29]
  glycan array binding signal (z-score): -0.41
[30]
  glycan array binding signal (z-score): 0.604
